This is one part of the list.
What follows are sequences tested against T1, OsSMF1 (Oryza sativa, UniProt Q6ZLB0 1-436) (assay: protein-binding microarray (RPBM); PBS, 2% BSA, 51.3 ng/ul salmon testes DNA, 50 uM zinc acetate, 200 nM TF, 25 C, 1 h; high values mean tight binding). Settings: protein: recombinant; tags: N-terminal polyhistidine and DsRed monomer fusion (pET32a); chain copies: 2; label: CyDye5-dUTP incorporated in the synthesized complementary strand; 3' TTTTT single-stranded linker to array surface; dsDNA, one strand shown.
T1 sequence: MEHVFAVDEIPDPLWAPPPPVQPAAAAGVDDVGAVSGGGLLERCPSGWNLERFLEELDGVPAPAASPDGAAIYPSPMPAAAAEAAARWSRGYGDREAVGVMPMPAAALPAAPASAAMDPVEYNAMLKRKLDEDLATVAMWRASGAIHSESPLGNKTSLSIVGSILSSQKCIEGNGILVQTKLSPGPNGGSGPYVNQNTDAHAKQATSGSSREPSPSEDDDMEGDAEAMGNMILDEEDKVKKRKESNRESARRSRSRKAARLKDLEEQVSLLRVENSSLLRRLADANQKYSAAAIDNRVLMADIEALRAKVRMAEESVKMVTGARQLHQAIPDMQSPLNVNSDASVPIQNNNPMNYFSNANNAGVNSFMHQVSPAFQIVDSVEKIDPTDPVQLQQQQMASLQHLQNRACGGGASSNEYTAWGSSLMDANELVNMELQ
How it was run: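 An Axon 4000B scanner gave the binding signal as per-feature fluorescence intensity in arbitrary units. This followed washing of a custom Agilent array that had been incubated for 1 h at 25 °C with 200 nM protein in PBS, 2% BSA, salmon testes DNA and 50 µM zinc acetate. The proteins were transcription factors fused at the N-terminus to polyhistidine and DsRed, expressed in E. coli BL21-CodonPlus and purified on Ni–NTA.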

Row | Sequence | binding signal
1 | GGCGGCGTCGTCTCTTTCTCTCTCTCTCTGTGCATGGTGGCGGAGTCACCTAGTGCAG | 3510 fluorescence intensity (a.u.)
2 | GACTTATGACCTCTAATCCCAACTACAGGTCTACAGCGATCGGAGTCACCTAGTGCAG | 35000 fluorescence intensity (a.u.)
3 | TCTAGCTAGCACCATAAGGTGATAGACTAACCAGCCCGATCGGAGTCACCTAGTGCAG | 31400 fluorescence intensity (a.u.)
4 | TAGTAGATCTAGTATTTTATCTTTAGTCCATCTACCGAGCCGGAGTCACCTAGTGCAG | 28500 fluorescence intensity (a.u.)
5 | TCACCCATATAAGAACACACAAGAGGAGAAGAGAAGGGAACGGAGTCACCTAGTGCAG | 3540 fluorescence intensity (a.u.)
6 | GGGAAGAGAGAAGAGACGAAACAGGGAGGAGGGGATTGGGCGGAGTCACCTAGTGCAG | 3320 fluorescence intensity (a.u.)
7 | AATTGCTGGGTACAATCCAAAGTCAGATATGATGTGTTGTCGGAGTCACCTAGTGCAG | 3350 fluorescence intensity (a.u.)
8 | CCATATGTTCCAGGTCAGGATATGTACTCCACTTTCATGCCGGAGTCACCTAGTGCAG | 3580 fluorescence intensity (a.u.)
9 | GATTGATCGCCAGAAATCGCATGCAGTATAGTGTGAAGTTCGGAGTCACCTAGTGCAG | 22900 fluorescence intensity (a.u.)
10 | CCTCACTTTCACTCCACACGTACAACTCAGCTCATTCCACCGGAGTCACCTAGTGCAG | 3280 fluorescence intensity (a.u.)
11 | AAACATAAATCAAAATTTAGAAGTTAAAGAAACCCAGATTCGGAGTCACCTAGTGCAG | 18900 fluorescence intensity (a.u.)
12 | AGTGCCATCAGCTCAGTAGATGTGTTGCCGTGTTGGTGTCCGGAGTCACCTAGTGCAG | 3910 fluorescence intensity (a.u.)
13 | ATTCTAAAATCATGATGCTGATCTCGGCGTGACGTGTTGGCGGAGTCACCTAGTGCAG | 6630 fluorescence intensity (a.u.)
14 | AGTGGTGGTGAAGTGGGTGAGAAACTATCTTCTGTTCCTCCGGAGTCACCTAGTGCAG | 3900 fluorescence intensity (a.u.)
15 | GGTGCGTCACCCGTGGCGCCAGCGTCAAGGCTGTGGACCACGGAGTCACCTAGTGCAG | 5440 fluorescence intensity (a.u.)
16 | AAAAGGGATGACGATATTAAGTGCAAATGAATTTGGATCACGGAGTCACCTAGTGCAG | 3200 fluorescence intensity (a.u.)
17 | CTTCTAATTAGAGACTTGGTGTGTCACATAGTCGTCAGGTCGGAGTCACCTAGTGCAG | 3150 fluorescence intensity (a.u.)
18 | CCAACGTCGTACATCCCTCCACGTCATCGATCCGCGCCGCCGGAGTCACCTAGTGCAG | 35200 fluorescence intensity (a.u.)
19 | TAAGATCTTGTTGTGAAGATTTAATTGTAACAAACACAATCGGAGTCACCTAGTGCAG | 17600 fluorescence intensity (a.u.)
20 | ATCATCTCGTCTCGTCAGTCAAATCATCATTTGGTCAACACGGAGTCACCTAGTGCAG | 3360 fluorescence intensity (a.u.)
21 | AACAACTGTACTAATTGGGCTGCTGTCCTGACTGACTCAGCGGAGTCACCTAGTGCAG | 6980 fluorescence intensity (a.u.)

Row | Sequence | binding signal
22 | AGCTTCCGTCAAGTAGCGATTAAACAGGCCCTATGAAGATCGGAGTCACCTAGTGCAG | 27700 fluorescence intensity (a.u.)
23 | GGCTGGCGACGCCAAGGTGATGGCAGCGGCGGCGGTTATGCGGAGTCACCTAGTGCAG | 3520 fluorescence intensity (a.u.)
24 | GTCGTGCTAGCTCGATCCATTTCCTACGTGTGCACCAAACCGGAGTCACCTAGTGCAG | 5810 fluorescence intensity (a.u.)
25 | AATTAAGATAGGTACACGTGTGGTGGATAAAGATGATCTACGGAGTCACCTAGTGCAG | 4010 fluorescence intensity (a.u.)
26 | ATTGATCCACCATCTTTCCACGTATGTAAGATTCATGCAACGGAGTCACCTAGTGCAG | 3940 fluorescence intensity (a.u.)
27 | AAATTAAATCCATTTTAGCCACGCACTCAAGTTAGGATTTCGGAGTCACCTAGTGCAG | 3260 fluorescence intensity (a.u.)
28 | ATAAATATCTCCACGTGTGCACGAACTCATCCGCCGCACACGGAGTCACCTAGTGCAG | 14600 fluorescence intensity (a.u.)
29 | GAGACACCGACGCGTCACACCACCACGTCCGTTTCCGTACCGGAGTCACCTAGTGCAG | 9870 fluorescence intensity (a.u.)
30 | TTGTGATTTCCTTAATATAGAATAGAACCCTGCTCATATACGGAGTCACCTAGTGCAG | 25300 fluorescence intensity (a.u.)
31 | GCAAAATACAAACAAGGCAAGCAGGGAAGAATCCAAGCCGCGGAGTCACCTAGTGCAG | 7140 fluorescence intensity (a.u.)
32 | ATTGAATTGCTCTAGTTTCACTCCTTTAATTACCATGTATCGGAGTCACCTAGTGCAG | 3440 fluorescence intensity (a.u.)
33 | CAGGCGGCGCACGTGCATGACGTACGCGTCGAATGGTCCGCGGAGTCACCTAGTGCAG | 8150 fluorescence intensity (a.u.)
34 | GATGACCATGCCACCAGGTTGGTGCGCCGCCACGATCATGCGGAGTCACCTAGTGCAG | 3320 fluorescence intensity (a.u.)
35 | GAATTAGCTTGATTGACAGAAACAAATGGCTACAACTACACGGAGTCACCTAGTGCAG | 65500 fluorescence intensity (a.u.)
36 | CGAATCTTTTAAGCCTATTTACGCCATGATTTGACAATGTCGGAGTCACCTAGTGCAG | 3530 fluorescence intensity (a.u.)
37 | GTCCGGCCGCCTTGCGCGCCAGCTCCACGCACCGCCGCATCGGAGTCACCTAGTGCAG | 4300 fluorescence intensity (a.u.)
38 | AGAGTCTCAGATGCACCATTTGGATGGACAAGTGATGTGGCGGAGTCACCTAGTGCAG | 6180 fluorescence intensity (a.u.)
39 | ATCTAACCATGCGTCATTCACAGTTCTTCGTTCTTGTCTTCGGAGTCACCTAGTGCAG | 4610 fluorescence intensity (a.u.)
40 | AAGCAATGATTGGATTTCACGTGGCCTGCCTGCGGAGTAGCGGAGTCACCTAGTGCAG | 3420 fluorescence intensity (a.u.)
41 | ATAGTCTCAATGGCAACATTGCCAACTCATTTGTTTCCATCGGAGTCACCTAGTGCAG | 5470 fluorescence intensity (a.u.)
42 | GTTCAGTTGTTGTGTGATAACTCAAGCTGCGTGAGTCGTCCGGAGTCACCTAGTGCAG | 3220 fluorescence intensity (a.u.)

Pulled one by one from the list above:
Row | Sequence | binding signal
27 | AAATTAAATCCATTTTAGCCACGCACTCAAGTTAGGATTTCGGAGTCACCTAGTGCAG | 3260 fluorescence intensity (a.u.)
30 | TTGTGATTTCCTTAATATAGAATAGAACCCTGCTCATATACGGAGTCACCTAGTGCAG | 25300 fluorescence intensity (a.u.)
24 | GTCGTGCTAGCTCGATCCATTTCCTACGTGTGCACCAAACCGGAGTCACCTAGTGCAG | 5810 fluorescence intensity (a.u.)
42 | GTTCAGTTGTTGTGTGATAACTCAAGCTGCGTGAGTCGTCCGGAGTCACCTAGTGCAG | 3220 fluorescence intensity (a.u.)

From publication PMC7819943, “Rice protein-binding microarrays: a tool to detect cis-acting elements near promoter regions in rice”
